Assay results reported in patent US5340798 (dated 1994).

Test: general procedure: solution-phase peptide synthesis; DCCI/HOOBt, DIEA
[1] = late stage modification step, AUC@210 nm

Substance	step yield (late stage modification step) [%]	final HPLC purity [1] [%]	step yield (coupling step) [%]	crude HPLC purity (coupling step, AUC@210 nm) [%]
H-Aha-Gly-Asp-Trp .psi.-[CHN4 ]	44	>97		
H-Aha-Gly-Asp-Trp .psi.-[CN4 ]-t-Bu	23	>97		
Boc-Aha-Gly-Asp(t-Bu)-Trp .psi.-[CHN4 ]			94	94.8
